PubChem BioAssay AID1259254, NCATS, 2017

Aim: 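Gene knock-downs that lead to re-replication, shown by excess G2 DNA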 (primary screen)
Cells: human HCT116 colorectal cancer cells
Reagents: single siRNA against human genes
Timing: 3 days
Measured: 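Imaged Hoechst DNA stain sorts each cell into a cycle phase by DNA amount; per plate, G2 fraction set to 0% for non-targeting and 100% for GMNN siRNA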
Scale: G2 robust z-score and G2 cells, % of GMNN control: higher = more G2 cells, more excess DNA replication
Call rule: 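An siRNA counts as active if its G2 robust z-score lies at least 5 MADs above the screen median; here such calls match roughly 38% of GMNN control or more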
This is a random part of about 59,000 reagents. About 1,550 of all reagents (2.6%) count as active. 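G2 share is only a proxy for re-replication; each gene was hit by three separate siRNAs, and active genes were retested.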 Entries without a mark were called inactive. Reagents against one gene are numbered here. Further read-outs or replicates are left out here. The record does not give: the amount of reagent.

gene symbol	reagent no.	G2 robust z-score	G2 cells, % of GMNN control
GRIA1 (GeneID 2890)	1	6.01 (active)	45.3
GRIA1 (GeneID 2890)	2	-0.476	-0.382
GRIA1 (GeneID 2890)	3	-1.15	-5.11
GOLIM4 (GeneID 27333)	1	-0.727	-2.15
GOLIM4 (GeneID 27333)	2	-1.01	-4.15
GOLIM4 (GeneID 27333)	3	-0.385	0.261
KRT25 (GeneID 147183)	1	1.84	15.9
KRT25 (GeneID 147183)	2	0.0527	3.34
KRT25 (GeneID 147183)	3	-0.413	0.0615
ATF4 (GeneID 468)	1	0.209	4.44
ATF4 (GeneID 468)	2	-0.151	1.9
ATF4 (GeneID 468)	3	0.502	6.5
SMIM19 (GeneID 114926)	1	-0.57	-1.04
SMIM19 (GeneID 114926)	2	0.0473	3.3
SMIM19 (GeneID 114926)	3	-0.635	-1.5
ZFPM1 (GeneID 161882)	1	-0.225	1.38
ZFPM1 (GeneID 161882)	2	-1.48	-7.43
ZFPM1 (GeneID 161882)	3	1.76	15.4
TM6SF1 (GeneID 53346)	1	0.175	4.2
TM6SF1 (GeneID 53346)	2	-0.496	-0.525
TM6SF1 (GeneID 53346)	3	-0.197	1.58
RANBP3L (GeneID 202151)	1	2.31	19.2
RANBP3L (GeneID 202151)	2	1.05	10.4
RANBP3L (GeneID 202151)	3	-0.873	-3.17
MGLL (GeneID 11343)	1	2.2	18.4
MGLL (GeneID 11343)	2	-0.675	-1.78
MGLL (GeneID 11343)	3	0.456	6.18
AQP6 (GeneID 363)	1	-0.211	1.48
AQP6 (GeneID 363)	2	-0.874	-3.18
AQP6 (GeneID 363)	3	-0.0271	2.78
GSK3A (GeneID 2931)	1	-1.44	-7.15
GSK3A (GeneID 2931)	2	-0.786	-2.56
GSK3A (GeneID 2931)	3	0.163	4.12
TNFRSF10A-DT (GeneID 389641)	1	-0.513	-0.642
TNFRSF10A-DT (GeneID 389641)	2	0.338	5.35
TNFRSF10A-DT (GeneID 389641)	3	-0.334	0.617
ITPR3 (GeneID 3710)	1	0.307	5.13
ITPR3 (GeneID 3710)	2	-0.277	1.02
ITPR3 (GeneID 3710)	3	0.686	7.79
FGG (GeneID 2266)	1	3.99	31.1
FGG (GeneID 2266)	2	0.755	8.28
FGG (GeneID 2266)	3	2.01	17.1
CCSAP (GeneID 126731)	1	0.821	8.74
CCSAP (GeneID 126731)	2	0.127	3.86
CCSAP (GeneID 126731)	3	-0.00926	2.9
STAG3L1 (GeneID 54441)	1	-1.3	-6.16
STAG3L1 (GeneID 54441)	2	1.37	12.6
STAG3L1 (GeneID 54441)	3	0.0838	3.56
HYPK (GeneID 25764)	1	-0.34	0.577
HYPK (GeneID 25764)	2	-0.756	-2.35
HYPK (GeneID 25764)	3	-0.754	-2.34
RASSF3 (GeneID 283349)	1	0.38	5.64
RASSF3 (GeneID 283349)	2	-0.355	0.472
RASSF3 (GeneID 283349)	3	-0.701	-1.96
UCA1 (GeneID 652995)	1	-0.412	0.0664
UCA1 (GeneID 652995)	2	1.39	12.8
UCA1 (GeneID 652995)	3	1.73	15.1
RPH3AL (GeneID 9501)	1	-1.25	-5.83
RPH3AL (GeneID 9501)	2	-0.461	-0.277
RPH3AL (GeneID 9501)	3	-0.753	-2.33
PNPLA7 (GeneID 375775)	1	-0.733	-2.19
PNPLA7 (GeneID 375775)	2	-0.616	-1.37
PNPLA7 (GeneID 375775)	3	-0.22	1.42
ZNF638 (GeneID 27332)	1	-0.145	1.95
ZNF638 (GeneID 27332)	2	-0.112	2.18
ZNF638 (GeneID 27332)	3	-0.553	-0.92
UCHL1 (GeneID 7345)	1	-0.452	-0.215
UCHL1 (GeneID 7345)	2	-1.61	-8.38
UCHL1 (GeneID 7345)	3	-0.668	-1.73
